From paper PMC9193967
No constants are given. Whether binding was seen depends on the method and setting. In cells and extracts the contact can be indirect. Some binding calls cover weakened binding; strength is not graded here.

Molecular target: T1, receptor-interacting protein kinase 1 (RIPK1) (mouse (endogenous in heart tissue)) (UniProt Q60855)
T1 sequence: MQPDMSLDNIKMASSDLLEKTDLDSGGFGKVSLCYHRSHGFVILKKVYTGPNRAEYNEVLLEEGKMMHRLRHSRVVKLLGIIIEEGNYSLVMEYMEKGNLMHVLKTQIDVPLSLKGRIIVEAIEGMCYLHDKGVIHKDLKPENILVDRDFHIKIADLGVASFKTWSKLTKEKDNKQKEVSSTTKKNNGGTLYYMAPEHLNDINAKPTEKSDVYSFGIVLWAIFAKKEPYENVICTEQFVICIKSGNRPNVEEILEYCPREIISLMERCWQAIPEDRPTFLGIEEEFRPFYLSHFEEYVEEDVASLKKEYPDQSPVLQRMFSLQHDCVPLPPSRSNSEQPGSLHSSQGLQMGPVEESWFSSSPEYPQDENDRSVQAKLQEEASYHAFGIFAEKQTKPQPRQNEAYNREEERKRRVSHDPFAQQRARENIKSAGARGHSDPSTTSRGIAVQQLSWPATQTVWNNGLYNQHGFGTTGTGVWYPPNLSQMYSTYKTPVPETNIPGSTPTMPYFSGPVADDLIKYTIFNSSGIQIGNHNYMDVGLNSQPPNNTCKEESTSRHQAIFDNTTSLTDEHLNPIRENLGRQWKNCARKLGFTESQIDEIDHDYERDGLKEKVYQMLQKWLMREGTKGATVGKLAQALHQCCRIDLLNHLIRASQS
Test: co-IP; anti-RIPK1 antibody (610459, BD Bioscience) on Dynabeads Protein G, mouse heart tissue lysate added overnight in the cold room; blot for MG53; lysis buffer 50 mM Tris-HCl pH 7.5, 150 mM NaCl, 10% glycerol, 1% Triton X-100, 1 mM EDTA; infarct (I/R) and non-infarct areas of wt hearts

binding: binds
B1: mitsugumin 53 (MG53) (protein, UniProt Q1XH17 1-477)
chain: MSAAPGLLRQELSCPLCLQLFDAPVTAECGHSFCRACLIRVAGEPAADGTVACPCCQAPTRPQALSTNLQLSRLVEGLAQVPQGHCEEHLDPLSIYCEQDRTLVCGVCASLGSHRGHRLLPAAEAQARLKTQLPQQKMQLQEACMRKEKTVAVLEHQLVEVEETVRQFRGAVGEQLGKMRMFLAALESSLDREAERVRGDAGVALRRELSSLNSYLEQLRQMEKVLEEVADKPQTEFLMKFCLVTSRLQKILSESPPPARLDIQLPVISDDFKFQVWKKMFRALMPALEELTFDPSSAHPSLVVSSSGRRVECSDQKAPPAGEDTRQFDKAVAVVAQQLLSQGEHYWEVEVGDKPRWALGVMAADASRRGRLHAVPSQGLWLLGLRDGKILEAHVEAKEPRALRTPERPPARIGLYLSFADGVLAFYDASNPDVLTPIFSFHERLPGPVYPIFDVCWHDKGKNAQPLLLVGPEQEQA
